For 31 compounds, cell count results are on record in the supplement of paper PMC12462457.

Counter-ions that a name gives are not always drawn. ± gives the standard deviation of the averaged measurements. The list shows a part of the results. Repeats in this data set agree poorly, so a single value says little.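 Cell counts came from imaging DAPI-stained nuclei, excluding as dead any cells lacking phalloidin-stained cytoplasm. Counts per well were normalized to the median vehicle-well count on that plate, and the values were averaged over two replicate plates.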

The assay relates to OVCAR8. Put plainly: cell count relative to DMSO vehicle (fold change); higher = more surviving senescent cells (less killing). To be noted: senescence inducer: cisplatin 10 µM 48 h, then 6 d recovery (CP senescent), exposure time 24 h.

Take `COc1cccc2c1C(=O)c1c(O)c3c(c(O)c1C2=O)C[C@@](O)(C(=O)CO)C[C@@H]3O[C@H]1C[C@H](N)[C@H](O)[C@H](C)O1` [Doxorubicin (hydrochloride)]: the cell count was found to be 0.848 ± 0.13 (compound dose 1 µM) and 0.608 ± 0.11 (compound dose 5 µM).

Turning to `CN(CCO)CC[C@H](CSc1ccccc1)Nc1ccc(S(=O)(=O)NC(=O)c2ccc(N3CCC([C@@H](O)c4ccccc4-c4ccc(Cl)cc4)CC3)cc2)cc1S(=O)(=O)C(F)(F)F`, the cell count is 0.222 ± 0.036 (compound dose 1 µM) and 0.0835 ± 0.013 (compound dose 5 µM).

As for `CCCCCCC[N+](CC)(CC)CCCCc1ccc(Cl)cc1` [Clofilium tosylate], the cell count runs as follows: (compound dose 1 µM) 1.03 ± 0.03; (compound dose 5 µM) 1.05 ± 0.09.

`C=C1C(=O)O[C@@H]2/C=C(\C)CC/C=C(\C)CC[C@@H]12` [Costunolide] yielded a cell count (compound dose 1 µM) of 0.9175 ± 0.0078 and a cell count (compound dose 5 µM) of 0.486 ± 0.024.

Take `Oc1ccc2c(c1)OCO2` [Sesamol]: the cell count is, setting by setting: (compound dose 1 µM) 1.02 ± 0.16; (compound dose 5 µM) 0.699 ± 0.3.

`Nc1c[nH]c(=O)c2cc(-c3ccccc3)sc12` [Thienopyridone]: the cell count is 0.776 ± 0.018 (compound dose 1 µM) and 0.745 ± 0.092 (compound dose 5 µM).

Consider `COc1ccc([C@@H]2CC(=O)c3c(O)cc(O[C@@H]4O[C@H](CO[C@@H]5O[C@@H](C)[C@H](O)[C@@H](O)[C@H]5O)[C@@H](O)[C@H](O)[C@H]4O)cc3O2)cc1O` [Hesperidin], for which the cell count is, setting by setting: (compound dose 1 µM) 0.937 ± 0.072; (compound dose 5 µM) 1.18 ± 0.05.

In the case of `CC(C)(C)S(=O)(=O)c1cc2c(Nc3ccc4scnc4c3)ncnc2cc1OCCO`, the cell count runs as follows: (compound dose 1 µM) 0.825 ± 0.21; (compound dose 5 µM) 0.595 ± 0.096.

For the compound `Cc1cc(OCCCc2c3n(c4c(-c5c(C)nn(C)c5C)c(Cl)ccc24)[C@H](C)CN(c2cn(C)c4ccc(C(=O)O)cc24)C3=O)cc(C)c1Cl`, the cell count by setting is: (compound dose 1 µM) 0.807 ± 0.17; (compound dose 5 µM) 0.625 ± 0.23.

Regarding `CC(C(=O)O)c1ccc2c(c1)Cc1cccnc1O2` (configuration not stated), the cell count is, setting by setting: (compound dose 1 µM) 1.29 ± 0.14; (compound dose 5 µM) 1.09 ± 0.2.

Consider `Clc1ccc(NN=C(c2ccccc2)c2ccccn2)nc1`, for which the cell count (compound dose 1 µM) is 1.01 ± 0.24 and the cell count (compound dose 5 µM) was 0.467 ± 0.16.

`CN[C@H](C(=O)N[C@H](C(=O)N(C)[C@H](/C=C(\C)C(=O)O)C(C)C)C(C)(C)C)C(C)(C)c1ccccc1` [Taltobulin] displayed a cell count (compound dose 1 µM) of 0.756 ± 0.057 and a cell count (compound dose 5 µM) of 0.617 ± 0.065.

For `COc1cc(O)c2c(c1)oc(=O)c1c3cc(O)c(O)cc3oc21` [Wedelolactone], the cell count came out at 1.19 ± 0.055 (compound dose 1 µM) and 0.513 ± 0.069 (compound dose 5 µM).

As to `COC(=O)C[C@H](NC(=O)[C@H](C)NC(=O)[C@@H](NC(=O)OCc1ccccc1)C(C)C)C(=O)CF`, the cell count amounted to 1.02 ± 0.061 (compound dose 1 µM) and 1.2 ± 0.11 (compound dose 5 µM).

Take `Cc1c(C)c2c(c(C)c1O)CCC(C)(COc1ccc(CC3SC(=O)NC3=O)cc1)O2` (configuration not stated) [Troglitazone]: the cell count (compound dose 1 µM) was determined as 0.832 ± 0.11 and the cell count (compound dose 5 µM) came out at 0.815 ± 0.043.

For `COc1ccc(-c2cc(=O)c3c(O)cc(O)c(-c4cc(-c5cc(=O)c6c(O)cc(O)cc6o5)ccc4OC)c3o2)cc1`, the cell count was 1.04 ± 0.047 (compound dose 1 µM) and 0.917 ± 0.42 (compound dose 5 µM).

Take `Cc1cc(-c2ncc(-c3cccnc3)cc2/C=C/c2ccccc2)cnc1-c1cccnc1` [Pyridoclax]: the cell count runs as follows: (compound dose 1 µM) 0.998 ± 0.041; (compound dose 5 µM) 0.917 ± 0.11.

With `COCCOc1cnc2ccn([C@H](C)c3nnc4c(F)cc(-c5cnn(C)c5)cn34)c(=O)c2c1`, the cell count runs as follows: (compound dose 1 µM) 0.797 ± 0.12; (compound dose 5 µM) 0.913 ± 0.12.

Regarding `COc1ccc(-c2oc3cc(O)cc(O)c3c(=O)c2O)cc1` [Kaempferide], the cell count (compound dose 1 µM) turned out to be 1.11 ± 0.059 and the cell count (compound dose 5 µM) turned out to be 0.86 ± 0.24.

For the compound `O=C1[C@H](Cc2ccc(O)cc2)N2C(=O)CCN(C(=O)NCc3ccccc3)[C@H]2CN1Cc1cccc2ccccc12`, the cell count (compound dose 1 µM) was 0.9305 ± 0.0064 and the cell count (compound dose 5 µM) is 0.861 ± 0.04.

Consider `C[C@@H]1O[C@@H](O[C@H]2[C@H](O[C@H]3CC[C@]4(C)[C@H]5CC=C6[C@@H]7CC(C)(C)CC[C@]7(C(=O)O)CC[C@@]6(C)[C@]5(C)CC[C@H]4C3(C)C)OC[C@H](O[C@@H]3O[C@H](CO)[C@@H](O)[C@H](O)[C@H]3O)[C@@H]2O)[C@H](O)[C@H](O)[C@H]1O` [Hederacolchiside A1], for which the cell count is, setting by setting: (compound dose 1 µM) 1.04 ± 0.23; (compound dose 5 µM) 0.0395 ± 0.021.

For the compound `COC(=O)Nc1nc2cc(C(=O)c3ccccc3)ccc2[nH]1` [Mebendazole], the cell count runs as follows: (compound dose 1 µM) 0.773 ± 0.12; (compound dose 5 µM) 0.639 ± 0.16.

Turning to `CC1C(=O)OC2C(O)C34C5CC(C(C)(C)C)C36C(OC(=O)C6O)OC4(C(=O)O5)C12O` (configuration not stated) [Ginkgolide B], the cell count (compound dose 1 µM) was 1 ± 0.17 and the cell count (compound dose 5 µM) is 0.866 ± 0.15.

On to `O=c1ccc2ccc(O)cc2o1`, for which the cell count by setting is: (compound dose 1 µM) 0.714 ± 0.052; (compound dose 5 µM) 0.886 ± 0.2.

On to `C=C1C[C@@]2(O)O[C@@]3(C[C@H]2C(C)C)[C@@H](C)CC[C@@H]13` [Curcumol], for which the cell count is 1.07 ± 0.38 (compound dose 1 µM) and 0.89 ± 0.052 (compound dose 5 µM).

Take `N[C@H](Cc1c[nH]c2ccccc12)C(=O)N/N=C/c1ccc2nccnc2c1` [Rhosin (hydrochloride)]: the cell count amounted to 1.24 ± 0.11 (compound dose 1 µM) and 1.03 ± 0.1 (compound dose 5 µM).

For the compound `CC(C)c1cc(-c2n[nH]c(=O)n2-c2ccc3c(ccn3C)c2)c(O)cc1O` [Ganetespib], the cell count came out at 0.41 ± 0.035 (compound dose 1 µM) and 0.345 ± 0.061 (compound dose 5 µM).

For `NS(=O)(=O)OC[C@H]1C[C@@H](Nc2ccnc3cc(-c4cccc(SC(F)(F)F)c4)nn23)[C@H](O)[C@@H]1O`, the cell count runs as follows: (compound dose 1 µM) 0.0245 ± 0.018; (compound dose 5 µM) 0.016 ± 0.0028.

`N#CSc1cc(SC#N)c(N)nc1N`: the cell count runs as follows: (compound dose 1 µM) 1.02 ± 0.1; (compound dose 5 µM) 0.771 ± 0.1.

With `O=C(/C=C/c1ccc(O)cc1)C(C(=O)/C=C/c1ccc(O)cc1)C(=O)Nc1ccccc1`, the cell count by setting is: (compound dose 1 µM) 0.718 ± 0.1; (compound dose 5 µM) 0.533 ± 0.24.

As to `COc1c2c(cc3c1-c1c(cc4c(c1OC)OCO4)C[C@H](C)[C@H](C)C3)OCO2` [Schisandrin C], the cell count is, setting by setting: (compound dose 1 µM) 0.966 ± 0.13; (compound dose 5 µM) 1.25 ± 0.037.
